Data published in PMC4650548.
No constants are given. Whether binding was seen depends on the method and setting. Binding seen in cells or lysates may run through a third protein. Some results given as binding are weak or reduced against the parent protein; the word gives no strength. One block for each substance: values may come before it.

Amino acid sequences for entries named in this document (tags omitted). A change or cut given only in a name is not applied to a line headed by its entry.
UniProt Q9P1Y6: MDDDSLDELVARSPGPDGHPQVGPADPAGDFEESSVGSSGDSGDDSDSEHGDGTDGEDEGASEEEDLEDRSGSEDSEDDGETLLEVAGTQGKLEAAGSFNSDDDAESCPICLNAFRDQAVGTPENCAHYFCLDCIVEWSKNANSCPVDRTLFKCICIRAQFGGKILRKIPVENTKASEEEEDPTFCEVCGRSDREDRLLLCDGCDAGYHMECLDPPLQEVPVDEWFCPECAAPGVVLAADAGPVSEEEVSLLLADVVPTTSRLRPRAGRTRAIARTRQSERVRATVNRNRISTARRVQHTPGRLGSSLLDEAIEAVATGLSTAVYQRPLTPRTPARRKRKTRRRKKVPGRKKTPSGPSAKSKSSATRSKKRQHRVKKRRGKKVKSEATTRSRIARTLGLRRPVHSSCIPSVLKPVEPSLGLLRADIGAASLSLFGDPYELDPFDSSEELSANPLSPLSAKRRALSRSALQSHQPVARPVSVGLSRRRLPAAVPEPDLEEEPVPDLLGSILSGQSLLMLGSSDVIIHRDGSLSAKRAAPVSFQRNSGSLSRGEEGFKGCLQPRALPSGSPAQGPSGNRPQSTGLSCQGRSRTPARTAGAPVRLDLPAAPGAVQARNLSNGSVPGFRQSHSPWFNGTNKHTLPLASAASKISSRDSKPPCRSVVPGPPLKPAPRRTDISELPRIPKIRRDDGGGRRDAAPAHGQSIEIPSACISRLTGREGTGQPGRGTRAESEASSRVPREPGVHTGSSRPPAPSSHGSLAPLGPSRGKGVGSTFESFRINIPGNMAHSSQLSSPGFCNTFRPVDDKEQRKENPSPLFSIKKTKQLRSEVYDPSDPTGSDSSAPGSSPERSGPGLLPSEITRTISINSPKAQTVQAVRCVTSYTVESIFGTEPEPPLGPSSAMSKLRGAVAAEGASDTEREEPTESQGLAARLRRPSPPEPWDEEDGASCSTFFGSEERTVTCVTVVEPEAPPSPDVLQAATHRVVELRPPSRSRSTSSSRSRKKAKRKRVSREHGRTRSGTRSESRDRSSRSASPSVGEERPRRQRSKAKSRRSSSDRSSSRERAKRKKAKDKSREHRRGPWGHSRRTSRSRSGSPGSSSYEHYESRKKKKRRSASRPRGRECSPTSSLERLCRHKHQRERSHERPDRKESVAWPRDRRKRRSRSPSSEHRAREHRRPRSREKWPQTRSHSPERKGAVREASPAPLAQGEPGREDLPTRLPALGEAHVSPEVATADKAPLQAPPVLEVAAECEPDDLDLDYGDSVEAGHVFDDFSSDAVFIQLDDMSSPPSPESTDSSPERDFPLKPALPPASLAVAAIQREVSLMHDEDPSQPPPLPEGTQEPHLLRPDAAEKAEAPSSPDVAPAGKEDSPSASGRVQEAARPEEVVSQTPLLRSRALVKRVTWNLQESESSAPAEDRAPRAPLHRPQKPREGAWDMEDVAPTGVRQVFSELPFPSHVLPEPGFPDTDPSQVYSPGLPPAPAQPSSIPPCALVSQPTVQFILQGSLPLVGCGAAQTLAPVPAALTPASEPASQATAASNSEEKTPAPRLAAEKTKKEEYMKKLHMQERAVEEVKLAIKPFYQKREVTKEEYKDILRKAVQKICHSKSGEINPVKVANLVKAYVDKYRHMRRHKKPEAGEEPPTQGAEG
UniProt O60934: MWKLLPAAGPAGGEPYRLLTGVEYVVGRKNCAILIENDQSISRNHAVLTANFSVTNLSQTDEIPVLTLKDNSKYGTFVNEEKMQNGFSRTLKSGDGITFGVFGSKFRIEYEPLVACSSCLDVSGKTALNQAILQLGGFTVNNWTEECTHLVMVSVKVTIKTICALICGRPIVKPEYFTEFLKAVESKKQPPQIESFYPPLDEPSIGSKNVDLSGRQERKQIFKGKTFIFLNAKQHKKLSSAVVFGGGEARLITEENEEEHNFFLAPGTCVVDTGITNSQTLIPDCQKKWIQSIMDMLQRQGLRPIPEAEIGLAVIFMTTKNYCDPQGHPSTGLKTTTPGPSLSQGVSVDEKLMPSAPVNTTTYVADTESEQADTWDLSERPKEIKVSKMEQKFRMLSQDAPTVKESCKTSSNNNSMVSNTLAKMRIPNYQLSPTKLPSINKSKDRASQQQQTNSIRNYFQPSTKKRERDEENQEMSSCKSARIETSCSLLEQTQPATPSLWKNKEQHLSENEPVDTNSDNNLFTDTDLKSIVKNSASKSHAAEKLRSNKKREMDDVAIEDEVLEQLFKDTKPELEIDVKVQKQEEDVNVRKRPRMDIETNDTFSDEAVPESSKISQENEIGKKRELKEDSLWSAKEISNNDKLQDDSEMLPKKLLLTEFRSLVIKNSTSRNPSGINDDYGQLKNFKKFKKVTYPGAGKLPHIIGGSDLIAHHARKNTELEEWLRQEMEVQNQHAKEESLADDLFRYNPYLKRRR

Tests used:
[1] = biological target: HA-PHRF1 (human) (UniProt Q9P1Y6); assay: co-IP; HA-tagged PHRF1 constructs transfected into HEK293T cells (48 h); cell extracts precipitated with anti-HA agarose, immunoblot with the indicated antibodies; time course after CPT exposure in Figure 3a
[2] = biological target: HA-PHRF1^S925A (human) (UniProt Q9P1Y6); assay: as above
[3] = biological target: HA-PHRF1^S925A/S1389A (human) (UniProt Q9P1Y6); assay: as above
[4] = biological target: HA-PHRF1 (reciprocal transfection of Figure 5a) (human) (UniProt Q9P1Y6); assay: co-IP; reciprocal transfection with HA-PHRF1; precipitates of PHRF1 blotted for NBS1 and Mre11
[5] = biological target: T1, Biotin-labeled A^915DA^917E peptide (a.a. 908-924 of PHRF1) (human); assay: pull-down; biotin-labeled PHRF1 peptides (a.a. 908-924) incubated with 500 ug HeLa whole-cell extracts at 4 C for 3 h, then streptavidin beads for 3 h; immunoblot; only the target purified
T1 sequence (peptide, biotin (position not stated)): AVAAEGAADAEREEPTE

[6] = biological target: FLAG-NBS1 (UniProt O60934); assay: co-IP; HeLa cells transfected with FLAG-NBS1; extracts precipitated with anti-FLAG agarose, immunoblot with anti-PHRF1

binding [1]: binds
binding [2]: binds
binding [3]: binds
Substance: Endogenous NBS1 (HEK293T) (from UniProt O60934 1-754)

binding [4]: binds
binding [5]: no binding
Substance: Endogenous NBS1 (HeLa) (from UniProt O60934 1-754)

binding [6]: binds
Substance: Endogenous PHRF1 (from UniProt Q9P1Y6 1-1649)
